From ChEMBL document CHEMBL4725345, “DFG-1 Residue Controls Inhibitor Binding Mode and Affinity, Providing a Basis for Rational Design of Kinase Inhibitor Selectivity” (J Med Chem, 2020)

Amino acid sequences for entries named in this document (tags omitted).
UniProt Q9Y463, whole entry: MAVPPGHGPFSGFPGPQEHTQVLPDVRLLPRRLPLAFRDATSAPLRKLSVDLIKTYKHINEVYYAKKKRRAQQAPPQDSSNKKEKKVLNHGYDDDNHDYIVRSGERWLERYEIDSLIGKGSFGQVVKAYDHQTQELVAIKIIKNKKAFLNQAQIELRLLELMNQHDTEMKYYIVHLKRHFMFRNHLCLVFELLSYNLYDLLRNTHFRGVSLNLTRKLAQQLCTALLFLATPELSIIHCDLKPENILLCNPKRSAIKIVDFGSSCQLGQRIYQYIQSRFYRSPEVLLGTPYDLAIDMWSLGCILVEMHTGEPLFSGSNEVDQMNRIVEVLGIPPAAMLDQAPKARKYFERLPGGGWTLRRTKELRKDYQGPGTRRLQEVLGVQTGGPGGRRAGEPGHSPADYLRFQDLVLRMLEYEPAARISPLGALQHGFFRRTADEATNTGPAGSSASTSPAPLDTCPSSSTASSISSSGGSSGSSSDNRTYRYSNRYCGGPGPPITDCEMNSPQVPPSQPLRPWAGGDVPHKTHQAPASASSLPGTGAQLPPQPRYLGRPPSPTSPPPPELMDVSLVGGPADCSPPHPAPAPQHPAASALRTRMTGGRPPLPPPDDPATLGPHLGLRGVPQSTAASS

Molecular target: Dual specificity tyrosine-phosphorylation-regulated kinase 1B (Homo sapiens, UniProt Q9Y463)

Cn1cc(-c2ccc3occ(-c4cccc(-c5ccncc5)c4)c3n2)cn1
IC50: 956 nM
